Laboratory results as given in the supplement of paper PMC12889115.
The list shows a part of the results. These are raw signals, not scaled to a control.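 First-pass screen: polymyxin B was added at a level that permeabilizes the Salmonella outer membrane while sparing the inner membrane. DMSO wells, with and without polymyxin B, defined maximum growth. Because plates differed from one another, each plate's data were ranked separately and the compounds with the lowest OD600 were carried forward as hits.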

Test system: Salmonella enterica serovar Typhimurium SL1344
Experiment: bacterial growth OD600 after 18 h with compound and polymyxin B; higher = more bacterial growth (less inhibition)
Conditions: 50 µM, Mueller-Hinton broth

SMILES	bacterial growth OD600 (polymyxin B 0.75 µg/mL)	bacterial growth OD600 (polymyxin B 1 µg/mL)
Cc1occc1C(=O)N(C)C(Cc1ccccc1)C1CCN(Cc2cccn2-c2ncccn2)CC1 (configuration not stated)	0.863	
Cc1nonc1CN(C)c1ccc(-c2nc(C3CC3)no2)cn1	0.675	
Cc1nonc1CN(C)C(=O)C1CCCN(c2nc(-c3ccccc3)nc3c2CCC3)C1 (configuration not stated)		0.008
O=C1N(Cc2cccnc2)C[C@@H]2C[C@@H](c3cccc(-n4cccn4)c3)N3CCC[C@@]123	0.856	
COC(=O)c1cc(CNC(=O)c2cccs2)cc(NS(=O)(=O)c2cccc(C(F)(F)F)c2)c1	0.01	
O=C(CC1(c2ccccc2)CC(=O)N(CC2CCCCC2)C1=O)N(CCO)Cc1ccccc1 (configuration not stated)	0.002	
Cc1ccsc1C(=O)N(Cc1ccc(OCc2ccc3c(c2)OCO3)cc1)CC1CCCO1 (configuration not stated)	0.008	
COCCNC(=O)c1ccc(OC)cc1OC1CCN(Cc2ccc(C)o2)CC1		1.1
CSc1ccc(CC2(CCC(=O)NCc3nc(-c4ccccc4)no3)CCC(=O)N2)cc1 (configuration not stated)	0.715	
CC(C)Cn1cc(C(=O)NCc2nc(-c3ccccc3)cs2)c(=O)c(C(=O)N2CCCCCC2)c1	0.094	
c1ccc(OCc2noc(-c3ccc(NCC4CCCCO4)nc3)n2)cc1 (configuration not stated)		0.721
CC(=O)c1ccc(F)c(-c2cc(C)cc3c2OC(CNC(=O)C(C)(C)C)C3)c1 (configuration not stated)	0.732	
CCN(CCO)c1ccc(-c2nc(Cc3ccc(F)cc3)no2)cn1	0.04	
Cc1cccc(C)c1Oc1ncccc1CNC(=O)CC(C)C		1.13
Cc1ccc2c(C)nc(N3CCCC(C(=O)NCC(C)C)C3)nc2c1 (configuration not stated)	0.908	
CCOC(=O)C1(CCc2ccccc2)CCN(C(=O)CCc2cnn(C)c2)CC1		0.807

SMILES	bacterial growth OD600 (polymyxin B 0.75 µg/mL)	bacterial growth OD600 (polymyxin B 1 µg/mL)
COCCO[C@H]1[C@H](NC(=O)C(C)C)c2ccccc2C12CCN(C(=O)c1ccsc1)CC2	0.902	
O=C(c1ccoc1)N1CCC2(CCCN(Cc3ccc(F)c(F)c3)C2=O)C1 (configuration not stated)		0.963
Cc1c(C(=O)N2CC3CCC2C3)cnn1-c1ncc2c(n1)-c1ccccc1CCC2 (configuration not stated)	0.86	
Cc1ccc(CN(C)C(=O)C2CCC(=O)N(CCN3CCOCC3)C2)o1 (configuration not stated)		0.921
Fc1ccc(-c2cnnc(NCCCc3cccnc3)n2)cc1	0.802	
O=C(c1csc2nc(-c3cccc(Cl)c3)cn12)N1CCC(CO)CC1	0.858	
COc1ccc(CCCNC(=O)c2ccc(N3CCC(O)CC3)nc2)cc1		0.933
Cc1ccc(F)cc1CNC1CCN(c2ccc(C(=O)NCCN3CCOCC3)cc2)CC1	0.716	
Cc1cc(C)c(C(=O)N2CCCC(Nc3ccccc3)C2)[nH]1 (configuration not stated)	0.85	
CN(CC1CCCN(CCc2ccc(F)cc2)C1)C(=O)C1=CC(=O)CC(C)(C)O1 (configuration not stated)		1.11
CN(Cc1ccon1)C(=O)c1cc(COc2cccc(C(F)(F)F)c2)[nH]n1	0.749	
Cc1ccc2c(c1)CN(Cc1cccnc1)CC(c1ccsc1)O2 (configuration not stated)	0.003	
CC(C)CCNC(=O)CCN1Cc2ccccc2OC(c2ccccc2F)C1 (configuration not stated)	0.002	
O=C(NCCCN1CCCC1=O)c1ccc2nc(C3CCCCC3)oc2c1		0.85
COc1cccc(-c2ccc(NC(=O)C3CCCN3C3CCN(C)CC3)cc2)c1 (configuration not stated)	0.592	
CCOc1ccc(CN2CCc3c(C(=O)N4CCCCC4C(=O)OC)c(OC)cc(=O)n3CC2)cc1 (configuration not stated)	0.87	

Sorted by length of the SMILES (ascending): three of the compounds above.
SMILES	bacterial growth OD600 (polymyxin B 0.75 µg/mL)	bacterial growth OD600 (polymyxin B 1 µg/mL)
Cc1nonc1CN(C)c1ccc(-c2nc(C3CC3)no2)cn1	0.675	
O=C(c1ccoc1)N1CCC2(CCCN(Cc3ccc(F)c(F)c3)C2=O)C1 (configuration not stated)		0.963
Cc1nonc1CN(C)C(=O)C1CCCN(c2nc(-c3ccccc3)nc3c2CCC3)C1 (configuration not stated)		0.008
